These are yes or no findings as the source states them, for the method shown. Binding seen in cells or lysates may run through a third protein. Some entries that bind do so weakly or less than the wild type. For some assays here: Where a sequence is shown, tags or fusion partners need not be part of it.
Tests used:
[1] = target: T1, myc-TGFβRI (human TGF-β receptor type I, from pcMV-myc-TGFβRI) (human) (UniProt P36897); assay: co-IP; HEK 293T cells co-expressing pcMV-myc-TGFβRII or pcMV-myc-TGFβRI with pcDNA3.1-TSP50; cell extracts (IP lysis solution) precipitated with anti-myc antibody on Protein A/G magnetic beads overnight at 4 °C, blot with anti-TSP50; reciprocal co-IP also done
T1 sequence: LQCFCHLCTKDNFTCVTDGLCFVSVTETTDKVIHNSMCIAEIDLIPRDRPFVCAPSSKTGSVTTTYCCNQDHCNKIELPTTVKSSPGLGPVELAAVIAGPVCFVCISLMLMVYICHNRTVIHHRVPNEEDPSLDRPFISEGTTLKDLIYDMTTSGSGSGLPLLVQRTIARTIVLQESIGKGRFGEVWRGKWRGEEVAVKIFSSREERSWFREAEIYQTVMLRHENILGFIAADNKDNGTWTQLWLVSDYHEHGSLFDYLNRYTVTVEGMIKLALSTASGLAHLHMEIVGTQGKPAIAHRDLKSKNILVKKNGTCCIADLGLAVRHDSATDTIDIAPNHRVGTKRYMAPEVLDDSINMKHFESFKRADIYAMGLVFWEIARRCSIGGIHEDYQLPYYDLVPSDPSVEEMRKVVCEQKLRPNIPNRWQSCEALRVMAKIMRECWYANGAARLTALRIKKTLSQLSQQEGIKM

By UniProt entry, the sequences of proteins in these tests, tags left out. Residues count along the entry.
UniProt P37173, residues 23-567: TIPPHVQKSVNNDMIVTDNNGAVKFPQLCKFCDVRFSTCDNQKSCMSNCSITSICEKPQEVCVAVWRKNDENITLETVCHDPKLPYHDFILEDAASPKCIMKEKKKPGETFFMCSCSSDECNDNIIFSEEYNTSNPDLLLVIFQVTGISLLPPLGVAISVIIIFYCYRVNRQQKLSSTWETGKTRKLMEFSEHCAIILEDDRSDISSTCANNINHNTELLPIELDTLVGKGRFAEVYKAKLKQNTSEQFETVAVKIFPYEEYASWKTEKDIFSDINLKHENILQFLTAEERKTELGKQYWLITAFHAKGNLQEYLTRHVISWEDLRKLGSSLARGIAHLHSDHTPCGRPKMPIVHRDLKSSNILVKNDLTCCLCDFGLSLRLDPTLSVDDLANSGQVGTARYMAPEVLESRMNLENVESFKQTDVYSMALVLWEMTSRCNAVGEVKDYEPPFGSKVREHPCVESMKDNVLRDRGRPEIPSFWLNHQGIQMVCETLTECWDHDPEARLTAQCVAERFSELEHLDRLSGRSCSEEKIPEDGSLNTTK

[2] = target: myc-TGFβRII (human TGF-β receptor type II, from pcMV-myc-TGFβRII) (human) (UniProt P37173); assay: as above

binding [1]: no binding | binding [2]: binds
B1: Testis-specific protease 50 (TSP50), expressed from pcDNA3.1-TSP50 (protein, UniProt Q9UI38 40-385)
chain: AGEAPGALSTADPADQSVQCVPKATCPSSRPRLLWQTPTTQTLPSTTMETQFPVSEGKVDPYRSCGFSYEQDPTLRDPEAVARRWPWMVSVRANGTHICAGTIIASQWVLTVAHCLIWRDVIYSVRVGSPWIDQMTQTASDVPVLQVIMHSRYRAQRFWSWVGQANDIGLLKLKQELKYSNYVRPICLPGTDYVLKDHSRCTVTGWGLSKADGMWPQFRTIQEKEVIILNNKECDNFYHNFTKIPTLVQIIKSQMMCAEDTHREKFCYELTGEPLVCSMEGTWYLVGLVSWGAGCQKSEAPPIYLQVSSYQHWIWDCLNGQALALPAPSRTLLLALPLPLSLLAAL
